Several values for one entry are separate records, joined by “and”; a condition that tells them apart may be missing. Equal values may be shown once. Among all 300,000 compounds or so, about 5,400 (1.8%) were called active. This list was built around the results that the source calls inconclusive (neither active nor inactive); the mix of calls is not that of the screen. The call rests on the fitted dose curve; tested in HEK293 cells. A potency beside an inconclusive call is a rough fit, not a confirmed value.
Assay: qHTS for inhibitors of binding or entry into cells for Marburg Virus
Details: Marburg virus pseudotyped entry inhibition, cell reporter; activity change, negative = inhibition: at 37.8 µM (top of the series) unless noted
On the % scale 0 is the no-effect control and ±100 the full control effect; potency means the concentration at half of the fitted maximal effect.

Structure (SMILES)	Potency	activity change, negative = inhibition
Cc1ccc2nc(N3CCN(C)CC3)c(C=O)c(=O)n2c1	inconclusive: 5.62 µM [inhibitor, partial curve, poor fit]	
Cc1ccc2oc(-c3cc(NC(=O)c4cccs4)cc(C)c3O)nc2c1		inactive: 11.9% [at 46.1 µM]
Cc1ccc(-c2nn(-c3ccccc3)cc2C(=O)OCC(=O)Nc2ncc(Cl)cc2Cl)cc1	inconclusive: 25.1 µM [inhibitor, single point]	
O=C(NC1CCN(Cc2ccccc2)CC1)C1CCN(S(=O)(=O)c2ccc(Cl)cc2)CC1	inconclusive: 10 µM [inhibitor, partial curve, poor fit]	
O=C(N1CCOCC1)N1CCN(S(=O)(=O)N2CCOCC2)CC1	inconclusive: 1.26 µM [activator, single point]	
Cn1nnnc1SCC(=O)NC1CCCCC1	inconclusive: 35.5 µM [activator, single point]	
Cn1ccnc1SCC(=O)c1ccc(OC(F)F)cc1	inconclusive: 2 µM [activator, single point]	
COc1cc2ccccc2cc1C(=O)Nc1cccnc1	inconclusive: 14.1 µM [inhibitor, single point]	
CCOC(=O)c1csc(NC(=O)c2ccc3c(c2)OCCO3)n1	inconclusive: 12.6 µM [inhibitor, partial curve, poor fit]	
O=c1c(-c2ccc(O)cc2)coc2cc(O)ccc12	inconclusive: 23.1 µM [activator, single point] and inconclusive: 3.2 nM [activator, full curve, poor fit]	
CCN(CC(=O)Nc1ccccc1OC)C(=O)CN1C(=O)NC(C)(c2ccccc2)C1=O (stereo unspecified)		inactive: 14.5%
COc1ccc2c(c1OC)C(=O)OC2Nc1ccccn1 (stereo unspecified)		inactive: 9.07%
Oc1ccc(CN2CCC(Cc3ccccc3)CC2)c2cccnc12	inconclusive: 2.82 µM [inhibitor, full curve, poor fit]	
CCCNC(=O)CSc1nc2ccccc2c(=O)n1CCC	inconclusive: 3.98 µM [inhibitor, full curve]	
COc1ccc(N2CCN(c3ccnc4cc(Cl)ccc34)CC2)cc1		inactive: -27.5% [at 46.1 µM]
COc1cccc(N2CCN(C(c3ccccn3)c3nnnn3C(C)(C)C)CC2)c1 (stereo unspecified)		inactive: 4.93%
CN(C)c1cc[n+](Cc2ccccc2)cc1	inconclusive: 0.891 µM [inhibitor, full curve, poor fit]	
CC1CCCCN1C(=O)CSc1nnc(-c2ccccc2Cl)o1 (stereo unspecified)	inconclusive: 25.1 µM [inhibitor, single point]	
CNCC(O)CN(c1ccccc1)c1ccccc1 (stereo unspecified)	inconclusive: 35.5 µM [inhibitor, single point]	
Cc1ccc(C)c(-c2nc3ccc(N)cc3[nH]2)c1	inconclusive: 9.2 µM [inhibitor, partial curve, poor fit]	
C/C(CC(=O)Nc1ccc2c(c1)OCCO2)=N\NC(=O)c1cccc(O)c1		inactive: 0.051% [at 46.1 µM]
OC(CNCc1ccc(-c2ccccc2)cc1)c1ccccc1 (stereo unspecified)	inconclusive: 22.4 µM [inhibitor, partial curve, poor fit]	
CCOCN(C(=O)Cn1cnc2cc(C)c(C)cc21)c1c(C)cccc1CC	inconclusive: 5.62 µM [inhibitor, full curve, poor fit]	

Structure (SMILES)	Potency	activity change, negative = inhibition
COc1ccc(NC(=O)CN(C)C(=O)c2cc(-c3ccc(Cl)cc3)nc3ccccc23)cc1	inconclusive: 20 µM [inhibitor, single point]	
NC(=O)c1ccsc1NC(=O)c1cc(=O)c2ccccc2o1	inconclusive: 0.731 µM [activator, full curve, poor fit]	
CN(C)c1cccc(C(=O)NC2CCCc3ccccc32)c1 (stereo unspecified)		inactive: 0.327% [at 46.1 µM]
CN1CCN(S(=O)(=O)c2ccc(N3CCN(c4ccccc4O)CC3)c([N+](=O)[O-])c2)CC1	inconclusive: 5.62 µM [inhibitor, single point]	
O=C(NC1CCCC1)c1noc2c1CCCCC2		inactive: -6.81%
COc1ccc(N/C=C/C(=O)c2cc(OC)c(OC)c(OC)c2)cc1	inconclusive: 0.631 µM [inhibitor, full curve, poor fit]	
Cc1ccc(Cl)cc1N1CCN(CCN)CC1		inactive: -4.27%
COc1cccc(CNC(=O)CCCSc2ccccc2)c1		inactive: 16.2% [at 46.1 µM]
O=C(c1ccc(F)c(S(=O)(=O)N2CCOCC2)c1)N(CCc1ccccc1)Cc1ccccc1	inconclusive: 10 µM [inhibitor, partial curve, poor fit]	
O=C(NC(=S)Nc1ccc(-c2ccccc2)cc1)c1ccccc1	inconclusive: 7.08 µM [activator, full curve, poor fit]	
O=C1CCCC2=C1C(c1ccsc1)CC(=O)N2c1ccccc1F (stereo unspecified)	inconclusive: 35.5 µM [inhibitor, single point]	
Cc1cc(NC(=O)CSc2nc(CCC3CCCC3)nc3ccccc23)no1	inactive	
Cc1cccc(NC(=O)CCS(=O)(=O)c2ccc3c(c2)oc(=O)n3C)c1		inactive: 2.48% [at 46.1 µM]
O=C1NC(c2ccccc2)C(c2ccccc2)N1 (stereo unspecified)	inconclusive: 17.8 µM [activator, single point]	
COCC(=O)n1nc(-c2ccc(C)cc2)nc1NCc1ccc(F)cc1		inactive: 9.73% [at 46.1 µM]
CCC(C)n1c(O)c(C=Nc2cccc(C(F)(F)F)c2)c(=O)[nH]c1=S (stereo unspecified)		inactive: 4.64%
COc1ccc(NC(=O)C(=O)NCC2(c3ccccc3)CCCC2)c(OC)c1		inactive: 7.64% [at 46.1 µM]
Cc1ccc2oc3c(c(=O)c2c1)C(c1ccc(OCC(N)=O)cc1)N(Cc1ccc2c(c1)OCO2)C3=O (stereo unspecified)		inactive: 18.8% [at 46.1 µM]
COc1ccc(/C=C/C(=O)Nc2cc(C)nn2-c2nc3ccccc3n2Cc2cccc([N+](=O)[O-])c2)cc1	inconclusive: 3.98 µM [inhibitor, single point]	
CN(C(=S)Nc1ccc(F)cc1)C1(c2ccccc2Cl)CCCCC1=O (stereo unspecified)	inconclusive: 29.1 µM [inhibitor, single point]	
COc1cc(CNC(C)(C)C)cc(Br)c1OCc1cccs1	inconclusive: 35.5 µM [inhibitor, single point]	
COc1ccc(C2C(CC(=O)O)=C(O)C(=O)N2c2ccccc2)cc1 (stereo unspecified)		inactive: 7.22%
O=C(COc1ccccc1C(=O)O)NC1CCCc2ccccc21 (stereo unspecified)	inconclusive: 1 µM [inhibitor, single point]	

Part of the list above, bar-delimited.
Structure (SMILES) | Potency | activity change, negative = inhibition
CN(C)c1cc[n+](Cc2ccccc2)cc1 | inconclusive: 0.891 µM [inhibitor, full curve, poor fit] | 
CCOCN(C(=O)Cn1cnc2cc(C)c(C)cc21)c1c(C)cccc1CC | inconclusive: 5.62 µM [inhibitor, full curve, poor fit] | 
O=C1NC(c2ccccc2)C(c2ccccc2)N1 (stereo unspecified) | inconclusive: 17.8 µM [activator, single point] | 
